Source: publication PMC3400623
No constants are given. Whether binding was seen depends on the method and setting. In cells and extracts the contact can be indirect. Some results given as binding are weak or reduced against the parent protein; the word gives no strength. For part of these data: Sequences can lack the tags named with a protein.

Amino acid sequences for entries named in this document (tags omitted).
UniProt P15806: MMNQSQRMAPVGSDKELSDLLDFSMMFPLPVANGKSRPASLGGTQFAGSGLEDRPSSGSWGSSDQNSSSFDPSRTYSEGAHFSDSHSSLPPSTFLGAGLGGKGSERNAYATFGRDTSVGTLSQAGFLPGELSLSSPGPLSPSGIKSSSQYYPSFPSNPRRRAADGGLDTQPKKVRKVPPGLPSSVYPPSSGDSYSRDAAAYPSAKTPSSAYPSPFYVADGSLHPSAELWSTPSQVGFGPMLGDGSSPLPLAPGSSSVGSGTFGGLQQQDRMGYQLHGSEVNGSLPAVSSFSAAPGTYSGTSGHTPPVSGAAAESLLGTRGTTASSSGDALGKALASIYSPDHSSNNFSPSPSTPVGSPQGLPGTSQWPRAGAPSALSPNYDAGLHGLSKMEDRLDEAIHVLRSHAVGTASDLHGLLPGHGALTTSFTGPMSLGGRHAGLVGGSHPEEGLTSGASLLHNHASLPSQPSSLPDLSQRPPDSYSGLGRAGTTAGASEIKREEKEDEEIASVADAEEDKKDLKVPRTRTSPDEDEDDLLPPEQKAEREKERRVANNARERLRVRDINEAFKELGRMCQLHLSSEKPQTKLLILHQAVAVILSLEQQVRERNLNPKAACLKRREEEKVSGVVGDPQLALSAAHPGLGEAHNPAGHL

Key:
[1] = molecular target: T1, endogenous PIASy of cultured mouse mesangial cells (mouse (endogenous in mouse mesangial cells)) (UniProt Q9JM05); assay: co-IP; endogenous proteins, mouse mesangial cell lysate in 20 mmol/L Tris-HCl pH 7.4, 150 mmol/L NaCl, 0.5% NP-40; IP with anti-PIAS4 antibody and protein A agarose, overnight at 4°C; Western blot with E12 antibody
T1 sequence: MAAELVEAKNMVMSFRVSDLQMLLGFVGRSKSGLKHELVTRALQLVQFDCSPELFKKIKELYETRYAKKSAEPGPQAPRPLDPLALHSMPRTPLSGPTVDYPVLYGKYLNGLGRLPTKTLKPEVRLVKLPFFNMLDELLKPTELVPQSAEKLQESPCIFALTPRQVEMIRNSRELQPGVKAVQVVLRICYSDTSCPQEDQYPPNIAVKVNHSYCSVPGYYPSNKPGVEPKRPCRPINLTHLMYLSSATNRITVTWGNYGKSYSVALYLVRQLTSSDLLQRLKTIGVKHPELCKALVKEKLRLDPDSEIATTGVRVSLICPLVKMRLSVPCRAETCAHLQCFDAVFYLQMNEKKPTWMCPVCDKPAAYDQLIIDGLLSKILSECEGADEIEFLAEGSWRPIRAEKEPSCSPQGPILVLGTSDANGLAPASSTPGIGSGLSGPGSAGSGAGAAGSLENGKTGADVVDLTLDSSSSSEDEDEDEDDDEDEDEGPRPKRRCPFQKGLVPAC

[2] = molecular target: T2, flag epitope-tagged PIASy (mouse) (UniProt Q9JM05); assay: co-IP; COS7 cells cotransfected, lysed 48 h later in 20 mmol/L Tris-HCl pH 7.4, 150 mmol/L NaCl, 0.5% NP-40; IP with anti-flag M2 affinity gel or with anti-myc (9E10) and protein G agarose, overnight at 4°C; Western blot
T2 sequence: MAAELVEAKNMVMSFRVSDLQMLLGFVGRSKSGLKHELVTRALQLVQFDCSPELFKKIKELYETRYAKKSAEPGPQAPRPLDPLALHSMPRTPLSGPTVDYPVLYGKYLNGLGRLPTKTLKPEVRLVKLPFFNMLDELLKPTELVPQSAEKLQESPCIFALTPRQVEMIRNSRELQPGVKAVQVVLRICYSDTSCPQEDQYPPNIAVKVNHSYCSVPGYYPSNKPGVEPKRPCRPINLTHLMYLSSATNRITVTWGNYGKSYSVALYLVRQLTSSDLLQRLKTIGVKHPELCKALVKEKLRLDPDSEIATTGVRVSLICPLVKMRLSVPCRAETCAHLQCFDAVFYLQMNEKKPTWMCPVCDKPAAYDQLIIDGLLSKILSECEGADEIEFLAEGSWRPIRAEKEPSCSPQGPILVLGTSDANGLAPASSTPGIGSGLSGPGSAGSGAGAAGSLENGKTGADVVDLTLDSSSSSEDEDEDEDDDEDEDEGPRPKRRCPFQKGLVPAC

[3] = molecular target: myc epitope-tagged E12 (mouse) (UniProt P15806); assay: as above

For “endogenous E12 of cultured mouse mesangial cells (from UniProt P15806 1-651)”, the binding [1] was “binds”.

For “myc epitope-tagged E12 (from UniProt P15806 1-651)”, the binding [2] was “binds”.

B1: flag epitope-tagged PIASy (protein, UniProt Q9JM05 1-507)
chain: MAAELVEAKNMVMSFRVSDLQMLLGFVGRSKSGLKHELVTRALQLVQFDCSPELFKKIKELYETRYAKKSAEPGPQAPRPLDPLALHSMPRTPLSGPTVDYPVLYGKYLNGLGRLPTKTLKPEVRLVKLPFFNMLDELLKPTELVPQSAEKLQESPCIFALTPRQVEMIRNSRELQPGVKAVQVVLRICYSDTSCPQEDQYPPNIAVKVNHSYCSVPGYYPSNKPGVEPKRPCRPINLTHLMYLSSATNRITVTWGNYGKSYSVALYLVRQLTSSDLLQRLKTIGVKHPELCKALVKEKLRLDPDSEIATTGVRVSLICPLVKMRLSVPCRAETCAHLQCFDAVFYLQMNEKKPTWMCPVCDKPAAYDQLIIDGLLSKILSECEGADEIEFLAEGSWRPIRAEKEPSCSPQGPILVLGTSDANGLAPASSTPGIGSGLSGPGSAGSGAGAAGSLENGKTGADVVDLTLDSSSSSEDEDEDEDDDEDEDEGPRPKRRCPFQKGLVPAC
In the case of B1, the binding [3] is reported as “binds”.
